Data: patent US20190002429A1, “Derivatives of Xanthone Compounds” (Agency for Science, Technology and Research, priority 2011, published 2019)
Some results were stated once for a whole list of compounds, not compound by compound.

How the values were obtained:
[1] = Calcein leakage from DOPC:DOPS liposomes; details: DOPC:DOPS = 3:1; compound:lipid ratio 1:4
Protocol: (§1) To further investigate antimicrobial action of the active compounds via inner membrane targeting, a calcein leakage study was performed. In brief, liposomes which mimic bacterial membrane (DOPE: […] The lipids were dissolved in methanol/chloroform (1:2, by volume). The solvent was then dried gently using a constant stream of nitrogen gas. Then, the lipid film was placed under vacuum for at least two hours. […] The hydrated vesicles were freeze-thaw (frozen in liquid nitrogen and warmed in water bath) for at least 7 cycles. Extrusion method using mini-extruder (Avanti Polar Lipid Inc.) was used to produce homogeneous large unilamellar vesicles (LUVs). The extrusion was done for at least 10 cycles using a polycarbonate membrane (Whatman, pore size 100 nm) to obtain LUVs with diameter of 100 nm. To separate the calcein encapsulated vesicles from free calcein, gel filtration column Sephadex G-50 was used. The concentrations of eluted liposomes were determined using total phosphorus determination assay. Leakage of calcein from the liposome induced by AM-series compounds could be monitored using fluorescence spectroscopy (Photon Technology International Model 814) at an excitation wavelength of 490 nm and an emission wavelength of 520 nm. […] Those compounds with […] HC50 values have stronger leakage %. […]

[2] = Calcein leakage from DOPE:DOPG liposomes; details: DOPE:DOPG = 3:1; compound:lipid ratio 1:4
Protocol: as §1

[3] = Calcein leakage from E. coli lipid extract liposomes; details: compound:lipid ratio 1:4
Protocol: as §1

Measured: % Leakage of calcein

COc1c(OCCCCBr)cc2oc3cc(OCCCCBr)c(CC=C(C)C)c(O)c3c(=O)c2c1CC=C(C)C [AM-005]
<10%: all assays above
